Values from PubChem BioAssay AID602196 (INSERM, 2012).
The deposit covers about 23,000 reagents; below is an unselected part. Of all reagents, 455 (2%) are marked active. 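Active includes both protection and sensitisation; some change values fall well beyond the stated -50 to +50 range.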 Further read-outs or replicates are left out here. Not stated in the record: the amount of reagent.

Purpose: 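Knock-downs that protect lung cancer cells from cisplatin or sensitise them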
Cells: human A549 lung cancer cells
Knock-down reagent: siRNA pair against human genes
Duration: 48 h transfection before cisplatin; time from cisplatin to read-out not stated
Conditions: cisplatin at a dose killing half of control-siRNA cells; exact dose and duration not given
Detection: 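Shift in cisplatin death relative to control siRNA, from -50 (all cells die) to +50 (no cells die); siRNAs harmful on their own scored 0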
Reading the numbers: two-siRNA summed score (-2 to +2): higher = both siRNAs protect from cisplatin killing; -2 means both sensitise; mean protection from cisplatin (shift in death): higher = protection from cisplatin killing
Hit rule: 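siRNAs harmful alone (LDH or WST-1) get 0; others get +1 for less and -1 for more cisplatin killing; genes are active when the two siRNAs give the same sign, summing to ±2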
Calls: active = both siRNAs shift cisplatin killing the same way; inactive = no consistent shift, or siRNA harmful alone

The opening 3 records as a preview:
gene symbol	PubChem SID	two-siRNA summed score (-2 to +2)	mean protection from cisplatin (shift in death) (%)	activity call
LOC200493	SID131522147	1	16.4	inactive
OR1J1	SID131502613	-1	0	inactive
MED26	SID131500956	-1	-13.9	inactive

The listing, repeating the preview:
gene symbol	PubChem SID	two-siRNA summed score (-2 to +2)	mean protection from cisplatin (shift in death) (%)	activity call
LOC200493	SID131522147	1	16.4	inactive
OR1J1	SID131502613	-1	0	inactive
MED26	SID131500956	-1	-13.9	inactive
RPIA	SID131505204	0	-3.6	inactive
TSPAN1	SID131505012	0	-4	inactive
KLRC1	SID131512341	0	5.4	inactive
ADGRE3	SID131519620	1	6.7	inactive
TDRD5	SID131517165	0	12.6	inactive
CYP4A22	SID131518735	0	25.4	inactive
RAD1	SID131508547	0	1.2	inactive
DIMT1	SID131518711	0	25	inactive
CHST7	SID131505703	0	-2.7	inactive
PCDHB1	SID131518497	0	20.5	inactive
LINC01257	SID131516835	0	11.8	inactive
TMEM45B	SID131519697	1	7.1	inactive
LOC127602	SID131503036	0	-15.2	inactive
FBXO4	SID131505634	0	-2.8	inactive
PPIP5K1	SID131520598	1	10.4	inactive
MGC57820	SID131513608	0	6.8	inactive
SYNJ1	SID131505840	0	-2.5	inactive
TCF15	SID131503465	0	-9.9	inactive
ST6GALNAC4	SID131508396	0	1	inactive
SPANXA2	SID131508522	0	1.1	inactive
SPINK4	SID131510087	0	2.9	inactive
MAP3K4	SID131515212	0	8.8	inactive
AQP10	SID131512702	0	5.8	inactive
OTOA	SID131511796	0	4.7	inactive
PODXL	SID131516178	0	10.4	inactive
PODXL	SID131517818	0	15	inactive
APOLD1	SID131502398	-1	-2.7	inactive
PURG	SID131520701	1	10.8	inactive
RAB11FIP2	SID131522939	2	12.9	active
SPCS2	SID131520742	1	11	inactive
APOM	SID131513169	0	6.3	inactive
LINC00639	SID131506722	0	-1.1	inactive
LHX9	SID131513738	0	7	inactive
CERCAM	SID131515829	0	9.8	inactive
OR2A4	SID131506486	0	-1.4	inactive
KCNQ1	SID131509713	0	2.4	inactive
NNMT	SID131507097	0	-0.6	inactive
CEP15	SID131513917	0	7.2	inactive
CEND1	SID131507813	0	0.3	inactive
LOC440347	SID131522545	1	19.8	inactive
LRRC45	SID131518318	0	18.3	inactive
CD164	SID131511836	0	4.8	inactive
PDSS1	SID131505957	0	-2.3	inactive
KIF18A	SID131515096	0	8.6	inactive
CCDC17	SID131510512	0	3.3	inactive
SEC31A	SID131516143	0	10.3	inactive
TMEM151A	SID131511521	0	4.4	inactive
LOC388791	SID131521710	1	14.5	inactive
TRAT1	SID131517012	0	12.2	inactive
KRT4	SID131521865	1	15.2	inactive
DCUN1D2	SID131506000	0	-2.2	inactive
EXOC3L4	SID131520191	1	9	inactive
MBOAT7	SID131508480	0	1.1	inactive
ADCY4	SID131508157	0	0.7	inactive
PLA1A	SID131500517	-1	-23.5	inactive
ACKR1	SID131502094	-1	-5.4	inactive
SLA2	SID131515534	0	9.3	inactive
LOC143158	SID131517805	0	14.9	inactive
OPA1	SID131510754	0	3.6	inactive
FBXO30	SID131521141	1	12.4	inactive
MBOAT1	SID131510089	0	2.9	inactive
RPL8	SID131517104	0	12.4	inactive
TMEM132A	SID131503705	0	-8.3	inactive
ZDHHC24	SID131517411	0	13.3	inactive
LOC441044	SID131507510	0	0	inactive
CYBB	SID131502684	-1	2.1	inactive
CMTM3	SID131521185	1	12.5	inactive
LOC440960	SID131523038	2	17.6	active
KNSTRN	SID131508624	0	1.3	inactive
LOC442582	SID131520952	1	11.7	inactive
